Data: PubChem BioAssay AID588590 (National Center for Advancing Translational Sciences (NCATS), 2011)
The whole screen tested about 390,000 compounds, of which about 4,000 (1%) were called active. The shares of active, inactive and inconclusive entries below differ from those in the screen. Calls follow the shape of the dose curve; as a rule, active = well fitted inhibition curve with a large enough effect; inconclusive = small, poorly fitted or top-dose-only effect, or another doubt; inactive = no such curve, though single readings can be large or run the other way. A potency beside an inconclusive call is a rough fit, not a confirmed value.

Sequences of proteins named here, by UniProt entry; tags and fusion partners are left off. A change or cut given only in a name is not applied to a line headed by its entry.
UniProt Q9UNA4: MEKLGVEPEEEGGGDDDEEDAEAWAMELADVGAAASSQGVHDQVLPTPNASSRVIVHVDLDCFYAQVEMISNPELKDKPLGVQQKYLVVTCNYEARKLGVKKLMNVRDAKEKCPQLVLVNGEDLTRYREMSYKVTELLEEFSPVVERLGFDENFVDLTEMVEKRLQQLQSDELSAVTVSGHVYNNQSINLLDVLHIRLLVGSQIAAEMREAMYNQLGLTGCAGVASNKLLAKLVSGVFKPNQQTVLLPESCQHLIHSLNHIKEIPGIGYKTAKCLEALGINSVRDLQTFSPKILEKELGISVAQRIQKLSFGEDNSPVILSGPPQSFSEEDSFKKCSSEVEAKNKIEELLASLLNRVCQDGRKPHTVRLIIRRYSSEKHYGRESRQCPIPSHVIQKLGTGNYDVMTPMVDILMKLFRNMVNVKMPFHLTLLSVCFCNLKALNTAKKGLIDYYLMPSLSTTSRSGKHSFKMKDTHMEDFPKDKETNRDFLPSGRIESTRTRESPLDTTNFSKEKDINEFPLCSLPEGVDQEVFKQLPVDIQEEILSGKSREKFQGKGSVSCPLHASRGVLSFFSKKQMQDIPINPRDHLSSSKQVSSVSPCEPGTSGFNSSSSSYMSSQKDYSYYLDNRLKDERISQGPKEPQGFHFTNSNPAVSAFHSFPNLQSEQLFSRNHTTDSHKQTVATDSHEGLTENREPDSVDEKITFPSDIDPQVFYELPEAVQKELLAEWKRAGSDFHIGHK

These molecules were tested against DNA polymerase iota (Homo sapiens) (UniProt Q9UNA4) (assay: qHTS for Inhibitors of Polymerase Iota). Details: Pol iota fluorescent replication assay, 10 min; series mostly up to 115 µM; activity, negative = inhibition: at the top concentration.
In short: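 Pol iota at 10 nM preincubated 15 min with compounds at room temperature; reaction started with fluorescent substrate, 50 nM final. Fluorescence read kinetically at 0 and 10 min; buffer-only wells as negative control.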
Potency is read from the fitted curve at half-maximal effect.

How did the Potency turn out when `N#Cc1c(NC(=O)c2ccccc2Cl)n(Cc2ccccc2)c2nc3ccccc3nc12` was run?
Its Potency is active: 20 µM.

Which Potency does the source give for `CCc1ccc(/C=N/Nc2nn[nH]n2)cc1` here?
Its Potency is inconclusive: 31.6 µM [inhibitor, full curve, poor fit].

For `Cc1ccc(C(=O)NCC(=O)OCC(=O)c2c(N)n(C)c(=O)n(C)c2=O)s1`, which Potency is on record?
The Potency was inconclusive: 14.1 µM [inhibitor, full curve, poor fit].

For `Cc1cc(C(F)F)n2nc(C(=O)Nc3cccc(Cl)c3C)nc2n1`, which “activity, negative = inhibition” value is on record?
The value was inactive: 12.3%.

Which Potency does the source give for `O=C(Nc1ccc2ccccc2c1[N+](=O)[O-])c1ccccc1` here?
The Potency was inconclusive: 89.1 µM [inhibitor, single point].

`COc1cc([N+](=O)[O-])ccc1-c1ccc(/C=C2\C(=O)ON=C2c2ccccc2)o1` was tested. Which Potency did it give?
The Potency was inconclusive: 14.1 µM [inhibitor, partial curve].

Which Potency does the source give for `NC(=O)c1ccsc1NC(=O)COC(=O)/C=C/c1ccc([N+](=O)[O-])cc1` here?
The Potency was inconclusive: 15.8 µM [inhibitor, full curve].

`COc1ccc2c(c1)c(=O)cc(C)n2CC(=O)NCc1ccco1` was tested. Which Potency did it give?
Its Potency is inconclusive: 39.8 µM [inhibitor, single point].

`COc1ccc(F)cc1S(=O)(=O)NCC(c1ccco1)S(=O)(=O)c1ccc(F)cc1` (centres undefined) was tested. Which “activity, negative = inhibition” value did it give?
Its value is inactive: 14.5%.

For `Cc1ccc(-c2cc(C(=O)Nc3nccs3)c3ccccc3n2)o1`, which Potency is on record?
The Potency was inconclusive: 22.4 µM [inhibitor, full curve, poor fit].

`CCCCC(=O)Nc1ccc(C(=O)Nc2ccc3c(c2)OCO3)cc1` was tested. Which Potency did it give?
Its Potency is inconclusive: 39.8 µM [inhibitor, single point].

With `CCCc1[nH][nH]c(=O)c1C(c1cccc(Cl)c1)C(C#N)C#N` (centres undefined) as the molecule, how does the Potency read?
The Potency was inconclusive: 39.8 µM [inhibitor, single point].

How did the “activity, negative = inhibition” value turn out when `COCCn1c(C)cc(C(=O)CSc2cc(C)c3ccc(OC)cc3n2)c1C` was run?
Its value is inactive: -0.832%.

Which Potency does the source give for `Cc1cc(Cl)cc(Cl)c1OCC(=O)NCc1ccco1` here?
Its Potency is inconclusive: 44.7 µM [inhibitor, partial curve].

With `O=c1cc(-c2ccccc2)[nH]c2ccc(F)cc12` as the molecule, how does the Potency read?
Its Potency is inconclusive: 70.8 µM [inhibitor, single point].

Which Potency does the source give for `O=C(N/N=C/c1ccc([N+](=O)[O-])o1)c1ccccc1NS(=O)(=O)c1cccs1` here?
Its Potency is active: 39.8 µM.

With `Cc1noc(C)c1C(=O)N1CCN(Cc2ccc3c(c2)OCO3)CC1` as the molecule, how does the Potency read?
The Potency was inconclusive: 79.4 µM [inhibitor, partial curve].

`CC1CCCN(CCCNC(=O)C2CC(=O)N(c3ccc(F)c(Cl)c3)C2)C1` (centres undefined) was tested. Which Potency did it give?
The Potency was inconclusive: 79.4 µM [inhibitor, partial curve].

How did the Potency turn out when `Cc1cccn2c(=O)c3cc(C(=O)NCc4ccco4)c(=N)n(C(C)C)c3nc12` was run?
The Potency was inconclusive: 11.2 µM [inhibitor, partial curve, poor fit].

With `O=C(COC(=O)c1ccc([N+](=O)[O-])s1)NCc1ccc(F)cc1` as the molecule, how does the Potency read?
The Potency was inconclusive: 56.2 µM [inhibitor, partial curve, poor fit].

How did the “activity, negative = inhibition” value turn out when `COc1cc(C(=O)c2ccccc2Cl)c([N+](=O)[O-])cc1OC` was run?
Its value is inactive: -15.2%.

`Cc1ccc(C(=O)NCC(c2ccc3c(c2)OCO3)N2CCN(C)CC2)cc1C` (centres undefined) was tested. Which Potency did it give?
Its Potency is inconclusive: 12.6 µM [inhibitor, partial curve, poor fit].

How did the “activity, negative = inhibition” value turn out when `NC(=S)N/N=C/c1ccccc1O` was run?
The value was inactive: -9.35%.

With `O=C1C=C(c2cc(F)ccc2F)C[C@@H](c2ccc(F)cc2)C1` as the molecule, how does the “activity, negative = inhibition” value read?
Its value is inactive: 19.1%.

With `O=C1NC2(CCCCCC2)C(=O)N1Cc1c(F)cccc1Cl` as the molecule, how does the “activity, negative = inhibition” value read?
The value was inactive: 29.9%.

For `Cc1ccc(C(C)C)c(OCCCCN2CCNCC2)c1`, which Potency is on record?
Its Potency is inconclusive: 39.8 µM [inhibitor, single point].

`O=C(CC(Cl)(Cl)Cl)N1CCN(/[N+]([O-])=N/Oc2ccc([N+](=O)[O-])cc2[N+](=O)[O-])CC1` was tested. Which Potency did it give?
Its Potency is inconclusive: 15.8 µM [inhibitor, partial curve, poor fit].

For `OCCCNC(=S)Nc1ccc(Br)cc1Cl`, which Potency is on record?
The Potency was inconclusive: 44.7 µM [inhibitor, partial curve, poor fit].

With `O=C1c2cccnc2C(=O)N1CO` as the molecule, how does the “activity, negative = inhibition” value read?
Its value is inactive: 4.22%.

With `COc1ccc(NC(=O)c2cc3c(s2)CCC3)cc1S(=O)(=O)N1CCOCC1` as the molecule, how does the Potency read?
The Potency was active: 35.5 µM.

How did the Potency turn out when `Cc1cc2c3c([nH]c2cc1S(=O)(=O)N1CCC2(CC1)OCCO2)CC(C)(C)CC3=O` was run?
The Potency was inconclusive: 25.1 µM [inhibitor, full curve, poor fit].

How did the Potency turn out when `COc1ccccc1N1CCN(C(=O)c2coc(=O)c(Br)c2)CC1` was run?
Its Potency is inconclusive: 89.1 µM [inhibitor, partial curve, poor fit].

Which Potency does the source give for `Cn1c(CNC(=O)c2ccco2)nnc1SCC(=O)Nc1ccccc1Cl` here?
Its Potency is inconclusive: 44.7 µM [inhibitor, partial curve, poor fit].

Which “activity, negative = inhibition” value does the source give for `NS(=O)(=O)Nc1cccc2cccnc12` here?
The value was inactive: -13.4%.

How did the Potency turn out when `COc1ccc(C(=O)COC(=O)[C@H](C)Nc2ccc(C(F)(F)F)cc2[N+](=O)[O-])c(OC)c1` was run?
The Potency was inconclusive: 50.1 µM [inhibitor, partial curve, poor fit].

How did the Potency turn out when `O=c1oc2ccccc2nc1/C=C(O)/C=C/c1ccc(F)cc1` was run?
The Potency was inconclusive: 20 µM [inhibitor, full curve, poor fit].

How did the Potency turn out when `O=C1/C(=C/c2cccnc2)SC(=S)N1c1ccc(O)cc1` was run?
Its Potency is inconclusive: 39.8 µM [inhibitor, single point].

Which “activity, negative = inhibition” value does the source give for `Clc1cccc(-n2cc(-c3ccccc3)c3c(N4CCCCC4)ncnc32)c1` here?
Its value is inactive: 20.3%.

Which Potency does the source give for `CCCN1CCC(=O)N([C@H](CN=[N+]=[N-])Cc2ccccc2)CC1` here?
Its Potency is inconclusive: 39.8 µM [inhibitor, single point].

For `O=C(CC1CCCC1)NNC(=O)c1ccc(F)cc1`, which “activity, negative = inhibition” value is on record?
Its value is inactive: 30.2%.

How did the Potency turn out when `CC[N+]1(C)CCC(O)(c2ccc(OC)cc2)C(C(=O)c2ccc(OC)cc2)C1` (centres undefined) was run?
The Potency was inconclusive: 25.1 µM [inhibitor, partial curve].

For `Oc1ccc(/C=N/N=C/c2ccc(O)c(O)c2)cc1O`, which Potency is on record?
Its Potency is active: 1.26 µM.

How did the Potency turn out when `CN(C)C(=O)c1cc([N+](=O)[O-])cc([N+](=O)[O-])c1N(C)C` was run?
The Potency was inconclusive: 63.1 µM [inhibitor, partial curve, poor fit].

How did the Potency turn out when `COc1ccc(C2=NS(=O)(=O)N(C)C(C(=O)N3C(C)CCCC3C)=C2)cc1` (centres undefined) was run?
The Potency was inconclusive: 89.1 µM [inhibitor, single point].

With `NC(=O)Cc1nc(-c2ccc(F)cc2)cs1` as the molecule, how does the “activity, negative = inhibition” value read?
Its value is inactive: -3.73%.

How did the Potency turn out when `CCC(C)(C)NC(=O)C(c1cccn1C)N(C(=O)Cn1nnc2ccccc21)c1ccc(NC(C)=O)cc1` (centres undefined) was run?
Its Potency is inconclusive: 3.16 µM [inhibitor, full curve, poor fit].

How did the Potency turn out when `O=C(CNC(=O)c1sc2ccccc2c1Cl)NCc1cccc(C(F)(F)F)c1` was run?
Its Potency is inconclusive: 79.4 µM [inhibitor, partial curve].

With `Cc1ccccc1NC(=O)CN1C(=O)N/C(=C\c2cccn2-c2cccc(C(=O)O)c2)C1=O` as the molecule, how does the Potency read?
The Potency was active: 5.62 µM.

With `c1cncc(-c2nc(NCc3ccco3)c3ccccc3n2)c1` as the molecule, how does the Potency read?
Its Potency is inconclusive: 20 µM [inhibitor, single point].

`COc1ccc(C(=O)N/N=C/c2cc(Br)ccc2O)cc1OC` was tested. Which Potency did it give?
Its Potency is inconclusive: 56.2 µM [inhibitor, partial curve, poor fit].

With `O=C(O)C1CCCCC1C(=O)Nc1cccc(Br)c1` (centres undefined) as the molecule, how does the Potency read?
The Potency was active: 44.7 µM.

How did the “activity, negative = inhibition” value turn out when `CC(C)(C)SCCNC(=O)CSCc1ccc([N+](=O)[O-])cc1` was run?
The value was inactive: 14.7%.

`Cc1c(/C=C/c2ccnc3ccccc23)ccc(N(C)C)c1C` was tested. Which “activity, negative = inhibition” value did it give?
Its value is inactive: -8.48%.

Which Potency does the source give for `Cc1cc(Br)ccc1NC(=S)NC1CCCC1` here?
The Potency was inconclusive: 89.1 µM [inhibitor, single point].

`COc1ccccc1/C=C/C(=O)c1ccc(NC(C)=O)cc1` was tested. Which Potency did it give?
Its Potency is inconclusive: 89.1 µM [inhibitor, partial curve].

For `COC(=O)C1=C(C(=O)OC)C(c2ccccc2O)c2sc(=O)[nH]c2S1` (centres undefined), which Potency is on record?
The Potency was inconclusive: 15.8 µM [inhibitor, partial curve, poor fit].

Which “activity, negative = inhibition” value does the source give for `O=C(Nc1ccc(Cl)c(Cl)c1)c1ccc(Cl)c(Cl)c1` here?
Its value is inactive: -25.8%.

`CC(=O)Nc1ccc(S(=O)(=O)NC2CCSc3ccccc32)cc1` (centres undefined) was tested. Which Potency did it give?
The Potency was inconclusive: 89.1 µM [inhibitor, single point].

`CC(=O)c1c(C)nc(-c2ccc(OCC(=O)Nc3cccc(C)c3C)cc2)n1O` was tested. Which Potency did it give?
The Potency was inconclusive: 25.1 µM [inhibitor, partial curve, poor fit].

For `CC(=O)Nc1sc2c(c1C#N)CCN(Cc1ccccc1)C2`, which “activity, negative = inhibition” value is on record?
Its value is inactive: 59.1%.

`CC(Oc1ccccc1)C(=O)Nc1ccc(S(=O)(=O)N2CCN(C)CC2)cc1` (centres undefined) was tested. Which “activity, negative = inhibition” value did it give?
Its value is inactive: 9.05%.

For `COc1ccc(-c2nc3c(c(SCC(=O)Nc4ccc(C(=O)O)cc4)n2)Cc2ccccc2O3)cc1`, which Potency is on record?
The Potency was inconclusive: 8.91 µM [inhibitor, partial curve, poor fit].

For `CCOC(=O)Cc1ccc(NC(=O)Nc2cccc(OCc3cc(=O)n4cc(C)ccc4n3)c2)cc1`, which “activity, negative = inhibition” value is on record?
Its value is inactive: 2.28%.

`COC(=O)c1ccccc1NC(=O)COC(=O)c1cccnc1` was tested. Which Potency did it give?
The Potency was inconclusive: 22.4 µM [inhibitor, single point].

How did the “activity, negative = inhibition” value turn out when `O=C(CCCCCn1c(=O)c2sccc2n(CC(=O)Nc2cccc(Cl)c2)c1=O)NCc1ccc2c(c1)OCO2` was run?
The value was inactive: -7.04%.

Which Potency does the source give for `CCOc1ccc(-c2nnn(CC#N)n2)cc1OC` here?
Its Potency is inconclusive: 35.5 µM [inhibitor, single point].

For `Oc1c(C(c2ccccc2)N2CCC3(CC2)OCCO3)sc2nc(-c3ccco3)nn12` (centres undefined), which “activity, negative = inhibition” value is on record?
Its value is inactive: -5.16%.

How did the “activity, negative = inhibition” value turn out when `CCc1ccc(-c2cn3c(n2)sc2cc(C(=O)NCCc4ccc(OC)cc4OC)ccc23)cc1` was run?
Its value is inactive: 30.9%.

How did the Potency turn out when `CCN1C(c2ccccc2)=C(c2ccccc2)S/C1=C\C=C1/SC(=S)N(C)C1=O` was run?
Its Potency is inconclusive: 1.12 µM [inhibitor, full curve, poor fit].
